Source: the supplement of paper PMC10849652
The list shows a part of the results.

Amino acid sequences for entries named in this document (tags omitted). A change or cut given only in a name is not applied to a line headed by its entry.
UniProt Q8NHG7: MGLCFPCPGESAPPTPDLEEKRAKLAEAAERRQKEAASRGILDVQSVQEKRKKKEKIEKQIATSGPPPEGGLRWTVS
UniProt O15533, whole entry, looked up: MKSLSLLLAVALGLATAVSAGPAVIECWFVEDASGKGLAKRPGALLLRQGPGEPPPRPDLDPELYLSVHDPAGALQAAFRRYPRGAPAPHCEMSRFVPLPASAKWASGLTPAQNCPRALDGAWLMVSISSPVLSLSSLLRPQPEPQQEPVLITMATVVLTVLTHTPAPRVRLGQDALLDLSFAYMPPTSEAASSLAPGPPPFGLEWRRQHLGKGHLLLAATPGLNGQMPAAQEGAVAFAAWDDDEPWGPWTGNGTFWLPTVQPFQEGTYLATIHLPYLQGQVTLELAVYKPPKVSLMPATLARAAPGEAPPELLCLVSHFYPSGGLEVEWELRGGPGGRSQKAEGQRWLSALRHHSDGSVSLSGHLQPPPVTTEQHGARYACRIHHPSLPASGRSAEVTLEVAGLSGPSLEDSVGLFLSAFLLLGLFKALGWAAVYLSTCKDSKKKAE
UniProt Q8NBJ7: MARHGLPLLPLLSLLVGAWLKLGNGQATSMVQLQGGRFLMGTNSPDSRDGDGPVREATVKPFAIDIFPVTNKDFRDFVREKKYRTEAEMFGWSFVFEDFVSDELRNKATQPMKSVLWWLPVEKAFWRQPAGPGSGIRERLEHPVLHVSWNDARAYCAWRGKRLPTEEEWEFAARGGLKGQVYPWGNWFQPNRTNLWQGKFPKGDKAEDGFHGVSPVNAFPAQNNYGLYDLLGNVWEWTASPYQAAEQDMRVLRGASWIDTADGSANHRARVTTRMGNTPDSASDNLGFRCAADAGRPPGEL
UniProt Q9H7L9: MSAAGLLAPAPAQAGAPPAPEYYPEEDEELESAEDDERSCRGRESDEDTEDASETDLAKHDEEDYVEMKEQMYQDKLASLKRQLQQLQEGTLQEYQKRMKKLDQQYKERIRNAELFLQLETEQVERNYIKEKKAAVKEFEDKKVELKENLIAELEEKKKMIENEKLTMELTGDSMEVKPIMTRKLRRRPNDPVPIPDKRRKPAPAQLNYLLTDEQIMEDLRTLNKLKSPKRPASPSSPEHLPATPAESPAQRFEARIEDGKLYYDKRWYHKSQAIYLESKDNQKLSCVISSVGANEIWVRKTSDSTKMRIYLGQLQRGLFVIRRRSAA
UniProt Q16563: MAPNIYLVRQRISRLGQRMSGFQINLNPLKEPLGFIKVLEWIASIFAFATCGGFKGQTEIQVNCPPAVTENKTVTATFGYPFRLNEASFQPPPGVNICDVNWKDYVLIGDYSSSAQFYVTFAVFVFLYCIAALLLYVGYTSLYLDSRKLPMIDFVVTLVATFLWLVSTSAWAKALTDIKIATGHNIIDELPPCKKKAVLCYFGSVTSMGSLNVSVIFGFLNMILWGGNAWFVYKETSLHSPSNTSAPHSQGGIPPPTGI
UniProt Q9UI15: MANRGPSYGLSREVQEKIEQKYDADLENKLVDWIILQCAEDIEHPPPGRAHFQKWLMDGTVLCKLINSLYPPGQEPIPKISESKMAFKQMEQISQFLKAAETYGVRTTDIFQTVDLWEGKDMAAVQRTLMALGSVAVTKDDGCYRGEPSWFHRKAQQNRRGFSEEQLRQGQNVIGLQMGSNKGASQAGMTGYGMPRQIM
UniProt O00268, whole entry, looked up: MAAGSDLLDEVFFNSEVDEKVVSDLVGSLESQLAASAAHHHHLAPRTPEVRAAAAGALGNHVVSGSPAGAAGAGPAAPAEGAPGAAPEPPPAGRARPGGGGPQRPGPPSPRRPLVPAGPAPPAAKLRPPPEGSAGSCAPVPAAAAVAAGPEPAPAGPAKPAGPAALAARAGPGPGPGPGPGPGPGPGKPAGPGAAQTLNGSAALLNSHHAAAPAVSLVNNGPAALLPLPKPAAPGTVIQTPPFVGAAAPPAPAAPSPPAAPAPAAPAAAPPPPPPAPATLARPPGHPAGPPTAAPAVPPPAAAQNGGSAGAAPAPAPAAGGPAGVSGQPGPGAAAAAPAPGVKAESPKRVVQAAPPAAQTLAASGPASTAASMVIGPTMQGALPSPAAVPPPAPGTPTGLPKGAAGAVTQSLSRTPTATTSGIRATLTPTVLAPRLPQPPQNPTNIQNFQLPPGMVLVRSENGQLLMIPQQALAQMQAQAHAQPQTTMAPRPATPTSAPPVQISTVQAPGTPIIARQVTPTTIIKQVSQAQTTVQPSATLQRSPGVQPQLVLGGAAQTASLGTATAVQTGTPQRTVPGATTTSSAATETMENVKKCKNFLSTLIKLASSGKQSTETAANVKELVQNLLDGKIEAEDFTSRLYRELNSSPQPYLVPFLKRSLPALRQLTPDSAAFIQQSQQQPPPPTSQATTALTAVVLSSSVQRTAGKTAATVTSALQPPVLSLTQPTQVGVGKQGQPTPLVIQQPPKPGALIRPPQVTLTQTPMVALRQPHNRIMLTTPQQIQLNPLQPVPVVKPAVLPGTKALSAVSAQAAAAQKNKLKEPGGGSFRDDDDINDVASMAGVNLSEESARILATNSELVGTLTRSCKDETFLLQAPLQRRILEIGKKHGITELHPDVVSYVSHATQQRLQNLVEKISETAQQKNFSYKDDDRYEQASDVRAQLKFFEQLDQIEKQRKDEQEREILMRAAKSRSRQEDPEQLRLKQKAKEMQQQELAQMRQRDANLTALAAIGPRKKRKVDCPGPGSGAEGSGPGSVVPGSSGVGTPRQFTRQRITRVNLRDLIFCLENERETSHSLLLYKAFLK
UniProt Q9UH65: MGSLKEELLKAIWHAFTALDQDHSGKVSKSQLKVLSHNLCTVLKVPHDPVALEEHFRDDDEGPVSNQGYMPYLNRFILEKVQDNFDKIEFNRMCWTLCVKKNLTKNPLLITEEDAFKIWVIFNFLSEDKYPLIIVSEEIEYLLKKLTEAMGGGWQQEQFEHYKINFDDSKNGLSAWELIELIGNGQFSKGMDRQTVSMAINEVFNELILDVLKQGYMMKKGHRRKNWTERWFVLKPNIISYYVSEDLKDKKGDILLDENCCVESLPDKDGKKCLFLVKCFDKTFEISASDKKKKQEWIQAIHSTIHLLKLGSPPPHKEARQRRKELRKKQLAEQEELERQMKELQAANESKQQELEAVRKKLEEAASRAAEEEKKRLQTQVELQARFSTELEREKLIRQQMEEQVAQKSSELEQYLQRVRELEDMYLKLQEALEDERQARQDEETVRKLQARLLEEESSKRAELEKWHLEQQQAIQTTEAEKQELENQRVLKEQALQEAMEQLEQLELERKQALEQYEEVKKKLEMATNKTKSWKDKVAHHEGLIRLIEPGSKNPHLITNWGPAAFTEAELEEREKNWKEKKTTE
UniProt Q9Y3F4: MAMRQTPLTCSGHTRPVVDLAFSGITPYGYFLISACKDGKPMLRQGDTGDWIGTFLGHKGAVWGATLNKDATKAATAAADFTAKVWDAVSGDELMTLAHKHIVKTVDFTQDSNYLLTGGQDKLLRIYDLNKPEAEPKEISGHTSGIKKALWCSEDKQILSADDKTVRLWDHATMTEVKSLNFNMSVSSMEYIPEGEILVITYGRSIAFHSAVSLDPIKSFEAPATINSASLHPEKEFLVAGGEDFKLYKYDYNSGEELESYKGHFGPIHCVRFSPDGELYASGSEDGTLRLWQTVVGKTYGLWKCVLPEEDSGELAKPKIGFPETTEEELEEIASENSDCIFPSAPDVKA
UniProt P0DMM9: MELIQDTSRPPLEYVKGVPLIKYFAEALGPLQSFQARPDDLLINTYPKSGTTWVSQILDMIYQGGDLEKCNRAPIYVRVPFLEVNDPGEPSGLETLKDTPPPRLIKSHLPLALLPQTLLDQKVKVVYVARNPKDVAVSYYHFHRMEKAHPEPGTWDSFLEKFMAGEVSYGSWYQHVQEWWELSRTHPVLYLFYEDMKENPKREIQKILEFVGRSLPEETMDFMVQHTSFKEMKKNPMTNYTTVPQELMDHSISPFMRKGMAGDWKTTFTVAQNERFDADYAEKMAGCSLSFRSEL
UniProt Q13033: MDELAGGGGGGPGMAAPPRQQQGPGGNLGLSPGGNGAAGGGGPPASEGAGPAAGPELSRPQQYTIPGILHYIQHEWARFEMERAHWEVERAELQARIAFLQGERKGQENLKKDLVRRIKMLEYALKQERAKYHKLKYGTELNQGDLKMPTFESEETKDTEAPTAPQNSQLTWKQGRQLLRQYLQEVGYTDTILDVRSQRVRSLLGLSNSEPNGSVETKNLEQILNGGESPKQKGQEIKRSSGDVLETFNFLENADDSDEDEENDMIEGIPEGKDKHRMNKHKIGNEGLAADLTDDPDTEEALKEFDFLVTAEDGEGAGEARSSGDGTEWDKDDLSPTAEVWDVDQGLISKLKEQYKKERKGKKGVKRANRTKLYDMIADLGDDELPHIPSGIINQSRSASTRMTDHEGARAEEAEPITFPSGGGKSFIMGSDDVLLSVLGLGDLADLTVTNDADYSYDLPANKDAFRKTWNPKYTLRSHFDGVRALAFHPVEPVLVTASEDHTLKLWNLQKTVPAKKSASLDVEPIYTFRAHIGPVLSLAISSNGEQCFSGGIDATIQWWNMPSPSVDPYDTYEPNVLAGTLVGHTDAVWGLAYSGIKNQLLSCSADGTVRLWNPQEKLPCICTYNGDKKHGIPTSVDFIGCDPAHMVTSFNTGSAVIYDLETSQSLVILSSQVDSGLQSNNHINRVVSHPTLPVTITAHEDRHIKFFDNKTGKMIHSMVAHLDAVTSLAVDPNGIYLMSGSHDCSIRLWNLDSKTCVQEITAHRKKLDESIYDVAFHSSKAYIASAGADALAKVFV
UniProt Q9P2W9: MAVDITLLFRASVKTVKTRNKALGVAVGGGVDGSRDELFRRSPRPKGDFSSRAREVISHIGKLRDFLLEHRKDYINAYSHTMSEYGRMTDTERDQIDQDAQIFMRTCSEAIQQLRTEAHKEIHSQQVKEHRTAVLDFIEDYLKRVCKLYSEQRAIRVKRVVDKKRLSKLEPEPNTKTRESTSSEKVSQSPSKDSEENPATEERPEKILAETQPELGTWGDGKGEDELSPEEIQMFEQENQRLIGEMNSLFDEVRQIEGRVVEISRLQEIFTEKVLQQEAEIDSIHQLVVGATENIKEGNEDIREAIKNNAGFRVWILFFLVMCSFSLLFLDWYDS
UniProt O75410: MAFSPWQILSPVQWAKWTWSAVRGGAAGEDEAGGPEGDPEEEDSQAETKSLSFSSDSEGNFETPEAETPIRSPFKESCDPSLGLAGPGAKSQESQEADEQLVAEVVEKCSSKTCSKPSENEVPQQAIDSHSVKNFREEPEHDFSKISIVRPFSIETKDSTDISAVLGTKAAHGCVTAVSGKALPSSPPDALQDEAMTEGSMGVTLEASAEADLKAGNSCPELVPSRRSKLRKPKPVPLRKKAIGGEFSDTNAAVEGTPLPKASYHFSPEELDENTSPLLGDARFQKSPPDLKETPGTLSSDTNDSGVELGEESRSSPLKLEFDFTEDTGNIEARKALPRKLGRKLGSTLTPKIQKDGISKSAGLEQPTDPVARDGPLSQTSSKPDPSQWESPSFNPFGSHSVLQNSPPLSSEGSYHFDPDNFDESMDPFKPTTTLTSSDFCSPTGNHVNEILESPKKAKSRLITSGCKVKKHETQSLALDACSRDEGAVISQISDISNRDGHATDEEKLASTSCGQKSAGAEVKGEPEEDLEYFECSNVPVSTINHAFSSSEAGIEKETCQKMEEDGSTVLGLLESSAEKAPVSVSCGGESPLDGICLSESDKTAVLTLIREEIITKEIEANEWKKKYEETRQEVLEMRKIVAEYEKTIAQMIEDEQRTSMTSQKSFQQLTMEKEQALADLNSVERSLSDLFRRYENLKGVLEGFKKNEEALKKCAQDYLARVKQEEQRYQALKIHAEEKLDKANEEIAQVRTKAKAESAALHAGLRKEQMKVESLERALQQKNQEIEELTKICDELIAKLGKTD
UniProt O75528: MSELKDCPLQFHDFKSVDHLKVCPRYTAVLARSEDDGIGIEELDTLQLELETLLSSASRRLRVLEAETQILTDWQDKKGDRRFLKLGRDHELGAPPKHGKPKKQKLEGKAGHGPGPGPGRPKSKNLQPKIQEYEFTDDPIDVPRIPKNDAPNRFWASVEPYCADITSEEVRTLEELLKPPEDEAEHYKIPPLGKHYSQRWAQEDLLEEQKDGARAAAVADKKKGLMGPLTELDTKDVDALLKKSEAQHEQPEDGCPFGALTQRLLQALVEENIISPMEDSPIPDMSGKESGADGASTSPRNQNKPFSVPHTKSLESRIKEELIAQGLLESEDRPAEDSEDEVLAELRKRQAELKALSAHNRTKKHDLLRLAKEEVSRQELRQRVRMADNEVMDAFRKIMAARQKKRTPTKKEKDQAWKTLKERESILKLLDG
UniProt Q9UNE7: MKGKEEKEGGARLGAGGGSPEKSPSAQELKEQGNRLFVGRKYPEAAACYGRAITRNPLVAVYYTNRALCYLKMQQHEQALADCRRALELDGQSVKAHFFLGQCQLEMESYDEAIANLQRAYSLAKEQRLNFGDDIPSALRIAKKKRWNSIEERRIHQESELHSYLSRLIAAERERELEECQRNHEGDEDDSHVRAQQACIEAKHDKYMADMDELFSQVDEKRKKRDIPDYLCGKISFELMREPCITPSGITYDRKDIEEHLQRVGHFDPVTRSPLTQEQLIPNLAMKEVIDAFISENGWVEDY

Columns and labels:
Assay in all cases: log2 fold change, soluble protein after heating vs DMSO (PISA); higher = thermal stabilisation; K562 cells, 10 uM, 30 min; active = over 0.2 and 3.5 SD of the protein, either way, in both replicates (recomputed)
[1] = compound: NC(=O)Nc1cc(-c2cccc(F)c2)sc1C(=O)N[C@H]1CCCNC1
Summary of the method: (§1)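 Aliquots of K562 cells (2×10^6 cells/mL) treated with 10 μM compound for 30 min were heated for 3 min over 48°C-58°C. After pooling and extraction in PBS with 0.5% NP-40 at 4°C, soluble protein from a 21,000xg, 90 min spin was quantified by TMTpro 16plex LC-MS/MS with channel sums equalised. Thermal stability is expressed against control samples, from duplicates, as a log2 fold change.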

[2] = compound: NC(=O)c1cnc(N[C@@H]2CCCC[C@@H]2N)nc1Nc1cccc(-n2nccn2)c1
Summary of the method: as §1

[3] = compound: NC1(c2ccc(-c3nc4ccn5c(=O)[nH]nc5c4cc3-c3ccccc3)cc2)CCC1
Summary of the method: as §1

[4] = compound: NCC(=O)Nc1ccc(-n2nc(C(F)(F)F)cc2-c2ccc3c(ccc4ccccc43)c2)cc1
Summary of the method: as §1

entinostat = compound: Nc1ccccc1NC(=O)c1ccc(CNC(=O)OCc2cccnc2)cc1 [entinostat]
Summary of the method: as §1

vorinostat = compound: O=C(CCCCCCC(=O)Nc1ccccc1)NO [vorinostat]
Summary of the method: as §1

citarinostat = compound: O=C(CCCCCCNC(=O)c1cnc(N(c2ccccc2)c2ccccc2Cl)nc1)NO [citarinostat]
Summary of the method: as §1

silmitasertib = compound: O=C(O)c1ccc2c(c1)nc(Nc1cccc(Cl)c1)c1ccncc12 [silmitasertib]
Summary of the method: as §1

[5] = compound: O=C1NC(=O)C(c2cnc3ccccn23)=C1c1cn2c3c(cc(F)cc13)CN(C(=O)N1CCCCC1)CC2
Summary of the method: as §1

[6] = compound: c1cc(OCCN2CCCCC2)cc(-c2n[nH]c3ccc(-c4nnc[nH]4)cc23)c1
Summary of the method: as §1

entospletinib = compound: c1cn2cc(-c3ccc4cn[nH]c4c3)nc(Nc3ccc(N4CCOCC4)cc3)c2n1 [entospletinib]
Summary of the method: as §1

Measured: log2 fold change

TBC1D13 (UniProt Q9NVG8)
inactive: [1] -0.021 | [2] 0.031 | [3] -0.07 | [4] -0.014 | entinostat -0.03 | vorinostat -0.014 | citarinostat 0.039 | silmitasertib 0.009 | [5] -0.087 | [6] -0.015 | entospletinib -0.012

SVIP (UniProt Q8NHG7)
inactive: [1] -0.081 | [2] 0.188 | [3] 0.051 | [4] 0.001 | entinostat -0.041 | vorinostat -0.074 | citarinostat -0.023 | silmitasertib -0.024 | [5] -0.094 | [6] -0.124 | entospletinib 0.061

TAPBP isoform 3 (UniProt O15533)
inactive: [1] 0.198 | [2] 0.12 | [3] -0.139 | [4] -0.041 | entinostat 0.392 | vorinostat 0.259 | citarinostat 0.164 | silmitasertib -0.029 | [5] -0.216 | [6] 0.044 | entospletinib -0.145

SUMF2 (UniProt Q8NBJ7)
inactive: [1] -0.029 | [2] -0.079 | [3] -0.066 | [4] -0.027 | entinostat 0.059 | vorinostat -0.042 | citarinostat -0.022 | silmitasertib 0.037 | [5] -0.015 | [6] -0.097 | entospletinib 0.036

SUDS3 (UniProt Q9H7L9)
inactive: [1] -0.113 | [2] -0.207 | [3] -0.192 | [4] -0.039 | entinostat -0.068 | citarinostat -0.009 | silmitasertib 0.074 | [5] -0.063 | [6] 0.209 | entospletinib -0.063

SYPL1 (UniProt Q16563)
inactive: [1] -0.037 | [2] 0.039 | [3] -0.058 | [4] -0.03 | entinostat -0.042 | vorinostat -0.048 | citarinostat 0.035 | silmitasertib 0.03 | [5] 0.022 | [6] -0.033 | entospletinib 0.036

TAGLN3 (UniProt Q9UI15)
inactive: [1] -0.17 | [2] -0.179 | [3] -0.141 | [4] 0.022 | entinostat -0.072 | silmitasertib -0.158 | [5] -0.057

TAF4 (UniProt O00268)
inactive: [1] -0.038 | [2] 0.104 | [3] 0.074 | [4] 0.229 | entinostat -0.046 | vorinostat 0.118 | silmitasertib 0.028 | [5] -0.06

SWAP70 (UniProt Q9UH65)
inactive: [1] 0.011 | [2] 0.001 | [3] -0.03 | [4] -0.007 | entinostat 0.01 | vorinostat 0.012 | citarinostat 0.052 | silmitasertib 0.004 | [5] -0.082 | [6] -0.012 | entospletinib -0.072

STRAP isoform 2 (UniProt Q9Y3F4)
inactive: [1] 0.005 | [2] -0.017 | [3] 0.013 | [4] 0.004 | entinostat -0.037 | vorinostat 0.006 | citarinostat -0.013 | silmitasertib -0.018 | [5] 0.031 | [6] -0.06 | entospletinib 0.016

SULT1A3 isoform 3 (UniProt P0DMM9)
inactive: [1] -0.097 | [2] -0.01 | [3] -0.155 | [4] 0.035 | entinostat 0.117 | vorinostat 0.043 | citarinostat 0.117 | silmitasertib 0.081 | [5] -0.061 | [6] 0.14 | entospletinib 0.041

STRN3 (UniProt Q13033)
inactive: [1] -0.014 | [2] -0.052 | [3] 0.003 | [4] 0.014 | entinostat 0.014 | vorinostat 0.025 | citarinostat -0.033 | silmitasertib -0.003 | [5] -0.068 | [6] -0.025 | entospletinib 0.037

STX18 (UniProt Q9P2W9)
inactive: [1] -0.058 | [2] -0.055 | [3] -0.091 | [4] -0.044 | entinostat 0.035 | vorinostat 0.071 | citarinostat -0.007 | silmitasertib 0.001 | [5] 0.059 | [6] -0.041 | entospletinib 0.001

TACC1 isoform 2 (UniProt O75410)
inactive: [1] -0.039 | [2] -0.025 | [3] -0.042 | [4] -0.013 | entinostat -0.028 | vorinostat -0.022 | citarinostat 0.028 | silmitasertib 0.04 | [5] -0.046 | [6] -0.01 | entospletinib -0.014

Random excerpt: two records from the list
TAF4 (UniProt O00268)
inactive: [1] -0.038 | [2] 0.104 | [3] 0.074 | [4] 0.229 | entinostat -0.046 | vorinostat 0.118 | silmitasertib 0.028 | [5] -0.06

TAPBP isoform 3 (UniProt O15533)
inactive: [1] 0.198 | [2] 0.12 | [3] -0.139 | [4] -0.041 | entinostat 0.392 | vorinostat 0.259 | citarinostat 0.164 | silmitasertib -0.029 | [5] -0.216 | [6] 0.044 | entospletinib -0.145

Following part

TADA3 (UniProt O75528)
inactive: [1] -0.003 | [2] -0.014 | [3] 0 | [4] -0.04 | entinostat 0.036 | vorinostat -0.015 | citarinostat 0.012 | silmitasertib 0 | [5] 0.019 | [6] -0.057 | entospletinib 0.003

STUB1 (UniProt Q9UNE7)
inactive: [1] 0.003 | [2] -0.177 | [3] 0.138 | [4] -0.01 | entinostat 0.028 | vorinostat 0.05 | citarinostat -0.033 | silmitasertib 0.233 | [5] 0.18 | [6] -0.134 | entospletinib 0.183

SYNE2 isoform 2 (UniProt Q8WXH0)
inactive: [1] -0.229 | [2] -0.172 | [3] 0.087 | [4] -0.134 | entinostat -0.125 | vorinostat 0.072 | citarinostat 0.053 | silmitasertib -0.056 | [6] 0.03

STK40 isoform 4 (UniProt Q8N2I9)
inactive: [2] 0.052
